Measurements reported in PubChem BioAssay AID504804 (Drosophila RNAi Screening Center, 2011)

- Purpose: 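Knock-downs shielding fly cells from apoptosis caused by DNA damage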 (primary screen)
- System: Drosophila Kc cells
- Knock-down reagent: long dsRNA against Drosophila genes, 0.5 µg dsRNA per well
- Time to read-out: 96 h (48 h knock-down, then 48 h drug)
- Treatment: doxorubicin 5 µg/ml for 48 h, added 48 h after dsRNA
- Measurement: 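Viability measured as cellular ATP by luminescence after 48 h knock-down then 48 h doxorubicin at 5 µg/ml; unnormalised plate counts for each replicate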
- Scale: raw ATP luminescence: higher = more viable cells, protection from doxorubicin
- Hit rule: 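Active when both duplicate wells lie at least 2 SD above the plate mean and protection is confirmed by rescreening and independent dsRNAs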
The deposit covers about 19,000 reagents; this is an unselected part of those with a known target gene and a result. Over the whole deposit, 47 (0.25%) got an active call. 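Signals are raw, not normalised; exact z-scores behind calls not deposited; actives needed confirmation, so some wells reaching 2 SD are inactive.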 A number with no mark means an inactive call. A plus sign joins genes that one reagent is predicted to hit.

| gene | dsRNA | raw ATP luminescence, replicate 1 | raw ATP luminescence, replicate 2 |
| --- | --- | --- | --- |
| Ubc84D (GeneID 40900) | DRSC12610 | 65210 | 69783 |
| Patj (GeneID 44100) | DRSC08712 | 57090 | 44037 |
| cutlet (GeneID 44637) | DRSC00284 | 19420 | 20553 |
| ppk21 (GeneID 43485) | DRSC14466 | 67290 | 46560 |
| Pex2 (GeneID 38941) | DRSC10770 | 36130 | 57743 |
| CG32055 (GeneID 39188) | DRSC10666 | 32613 | 37810 |
| CG16998 (GeneID 38847) | DRSC10235 | 86897 | 1.04e5 |
| CG14854 (GeneID 41761) | DRSC14978 | 68390 | 61830 |
| side-V (GeneID 37679) | DRSC04188 | 56677 | 76860 |
| side-V (GeneID 37679) | DRSC04189 | 1.87e5 | 2.02e5 |
| CG7126 (GeneID 42202) | DRSC16201 | 82800 | 89860 |
| CG12769 (GeneID 35770) | DRSC06167 | 61060 | 51530 |
| CG14100 (GeneID 40132) | DRSC10101 | 65723 | 59973 |
| Hsp60D (GeneID 34763) | DRSC02543 | 70897 | 82417 |
| BEAF-32 + CG42254 (retired record) | DRSC05503 | 66437 | 82717 |
| Aldh-III (GeneID 45398) | DRSC06047 | 57320 | 42177 |
| Cyt-c1 (GeneID 38612) | DRSC10447 | 30530 | 48753 |
| zld (GeneID 32994) | DRSC19486 | 2.72e5 | 2.20e5 |
| Csgalnact (GeneID 36079) | DRSC06228 | 51500 | 66600 |
| CG12917 (GeneID 36065) | DRSC06231 | 41413 | 68613 |
| CG11294 (GeneID 31807) | DRSC17777 | 20970 | 21020 |
| Setd3 (GeneID 31638) | DRSC17840 | 36800 | 44250 |
| Setd3 (GeneID 31638) | DRSC18269 | 44050 | 42780 |
| sced (GeneID 35564) | DRSC04990 | 65463 | 56223 |
| BomT3 (GeneID 42598) | DRSC13537 | 1.68e5 | 1.93e5 |
| BomT3 (GeneID 42598) | DRSC15871 | 56810 | 77810 |
| Nup160 (GeneID 34549) | DRSC02774 | 34590 | 49153 |
| TwdlD (GeneID 43210) | DRSC14738 | 72310 | 54810 |
| Der-2 (GeneID 42005) | DRSC15021 | 90980 | 75360 |
| Nepl11 (GeneID 40540) | DRSC12333 | 28580 | 37210 |
| Dop2R (GeneID 33007) | DRSC20683 | 3.70e5 | 3.48e5 |
| Dop2R (GeneID 33007) | DRSC20686 | 3.77e5 | 3.78e5 |
| Tfb1 (GeneID 36598) | DRSC07082 | 62923 | 38933 |
| Nepl8 (GeneID 34983) | DRSC02759 | 38420 | 75237 |
| Fcp3C (GeneID 31294) | DRSC18665 | 47050 | 44860 |
| mRpL9 (GeneID 41859) | DRSC15678 | 91320 | 76350 |
| CG13989 (GeneID 33869) | DRSC02321 | 22287 | 30670 |
| brat (GeneID 35197) | DRSC03497 | 79637 | 68393 |
| CG1116 (GeneID 40622) | DRSC12166 | 60940 | 58323 |
| CG15570 (GeneID 31366) | DRSC18058 | 45850 | 52040 |
| p38a (GeneID 42866) | DRSC16743 | 87350 | 1.09e5 |
| CG34112 (GeneID 4379842) | DRSC12235 | 60603 | 65850 |
| O-fut1 (GeneID 36564) | DRSC06138 | 74747 | 63070 |
| Pak3 (GeneID 41995) | DRSC15017 | 39220 | 43023 |
| CG4009 (GeneID 42054) | DRSC15536 | 1.08e5 | 92300 |
| CG13962 (GeneID 35270) | DRSC02304 | 43473 | 38157 |
| Polr2E (GeneID 36160) | DRSC06100 | 35307 | 52573 |
| RIC-3 (GeneID 37384) | DRSC04243 | 75653 | 52690 |
| RIC-3 (GeneID 37384) | DRSC04543 | 67913 | 57080 |
| CG9988 (GeneID 43388) | DRSC16587 | 63730 | 44900 |
| eas (GeneID 32585) | DRSC20329 | 2.55e5 | 3.01e5 |
| CG5292 (GeneID 42079) | DRSC15763 | 78500 | 73650 |
| CG33679 (GeneID 3772494) | DRSC01436 | 2.50e5 | 2.75e5 |
| eEF1beta (GeneID 45249) | DRSC07419 | 66677 | 67680 |
| CG46491 (GeneID 36929) | DRSC06565 | 64887 | 86150 |
| IPIP (GeneID 33849) | DRSC02164 | 1.22e5 | 64833 |
| CG8441 (GeneID 36792) | DRSC07180 | 66553 | 72333 |
| Ack-like (GeneID 36442) | DRSC07500 | 74540 | 60013 |
| drosha (GeneID 35747) | DRSC07607 | 56823 | 65593 |
| Mcr (GeneID 44071) | DRSC03366 | 1.19e5 | 74667 |
| CG42306 + Gint3 | DRSC06934 | 56797 | 65210 |
| CG33268 (GeneID 2768979) | DRSC10143 | 64257 | 60033 |
| Vha16-1 (GeneID 44307) | DRSC05020 | 68733 | 54500 |
| melt (GeneID 38785) | DRSC11367 | 66730 | 79510 |
| Gr94a (GeneID 117339) | DRSC13597 | 2.77e5 | 2.07e5 |
| SppL (GeneID 43128) | DRSC15228 | 62350 | 67710 |
| cnir (GeneID 33520) | DRSC00499 | 40747 | 29683 |
| CG10680 (GeneID 35282) | DRSC02093 | 53257 | 56250 |
| nmd (GeneID 44021) | DRSC02856 | 88043 | 76323 |
| CG31955 (GeneID 319045) | DRSC00285 | 44097 | 40557 |
| rnh1 (GeneID 35746) | DRSC07673 | 39000 | 74447 |
| OtopLc (GeneID 7354434) | DRSC18082 | 35330 | 49840 |
| OtopLc (GeneID 7354434) | DRSC18083 | 33700 | 37940 |
| OtopLc (GeneID 7354434) | DRSC18132 | 43370 | 55450 |
| CG11893 (GeneID 43056) | DRSC14429 | 84940 | 73250 |
| SA1 (GeneID 33974) | DRSC03424 | 96850 | 56767 |
| Pcyt1 (GeneID 117353) | DRSC08157 | 62053 | 63230 |
| CG14356 (GeneID 41722) | DRSC14819 | 1.18e5 | 89410 |
| Lamp1 (GeneID 35411) | DRSC03727 | 30900 | 29177 |
| ATPsynCF6 (GeneID 42759) | DRSC14092 | 65290 | 52090 |
| Tsp74F (GeneID 39995) | DRSC10508 | 57197 | 42647 |
| CAH14 (GeneID 37359) | DRSC04234 | 67513 | 63637 |
| CG13069 (GeneID 50271) | DRSC09952 | 54657 | 48860 |
| CG10657 (GeneID 39423) | DRSC09768 | 37653 | 34623 |

Reformatted: entries from further up.
gene | dsRNA | raw ATP luminescence, replicate 1 | raw ATP luminescence, replicate 2
Aldh-III (GeneID 45398) | DRSC06047 | 57320 | 42177
Cyt-c1 (GeneID 38612) | DRSC10447 | 30530 | 48753
zld (GeneID 32994) | DRSC19486 | 2.72e5 | 2.20e5
Csgalnact (GeneID 36079) | DRSC06228 | 51500 | 66600
CG12917 (GeneID 36065) | DRSC06231 | 41413 | 68613
CG11294 (GeneID 31807) | DRSC17777 | 20970 | 21020
Setd3 (GeneID 31638) | DRSC17840 | 36800 | 44250
Setd3 (GeneID 31638) | DRSC18269 | 44050 | 42780
sced (GeneID 35564) | DRSC04990 | 65463 | 56223
